# Results deposited as PubChem BioAssay AID652243 (Drosophila RNAi Screening Center, 2013).
# Aim: 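Knock-downs that decrease or increase androgen receptor reporter signal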 (primary screen)
# Cell system: Drosophila S2R+ cells
# Reagent: long dsRNA against Drosophila genes
# Timing: 72 h (48 h, then 24 h hormone)
# Challenge: synthetic androgen R1881 at 10 nM for 24 h
# Measurement: 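Per-well raw luminescence of the androgen-driven firefly reporter and of the Renilla control, two replicates each, without normalisation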
# Scale: firefly reporter light: higher = more light from androgen-responsive reporter; Renilla control light: higher = more constitutive control signal (cell number, transfection)
# Active means: 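Across duplicate plates, a knock-down whose log firefly/Renilla ratio shifted a set fold down or up from the GFP/LacZ control mean was a hit; the downward cut appears as both 1.5 and 3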
# Calls: active = hit: reporter lowered or raised; inactive = no hit
# In all, the deposit lists about 24,000 reagents; this is a random part of those with a known target gene and a result. Of all reagents, 246 (1%) got an active call. 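Plates not normalised; calls are printed but the firefly/Renilla ratio behind them is not deposited; fold cut for lowering reported inconsistently.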 Raw values vary from plate to plate and are shown uncorrected. Entries without a mark were called inactive. Names joined by + are all predicted targets of the reagent. Not stated in the record: the amount of reagent.
Gene,amplicon,"firefly reporter light, replicate 1","firefly reporter light, replicate 2","Renilla control light, replicate 1","Renilla control light, replicate 2"
CG6420,DRSC16035,2.29e5,2.05e5,2.50e6,2.19e6
CG6685,DRSC10695,3.15e5,2.50e5,2.56e6,1.31e6
CG6497,DRSC10654,3.48e5,2.90e5,3.41e6,2.52e6
CG6497,DRSC21469,9.18e5,5.84e5,3.20e6,2.42e6
CG6497,DRSC26253,2.17e5,3.65e5,2.85e5,3.98e5
CG3732,DRSC04410,4.67e5,1.02e5,8.13e5,4.10e5
CG3732,DRSC25057,7.98e5,8.34e5,1.31e6,1.16e6
CG14572,DRSC11733,1.64e5,1.68e5,2.05e6,1.91e6
CG11598,DRSC14331,2.02e5,1.58e5,2.81e6,3.11e6
TyrRS (Tyrosyl-tRNA synthetase),DRSC10430,47614,46516,4.52e5,3.32e5
TyrRS (Tyrosyl-tRNA synthetase),DRSC27145,1.96e5,2.65e5,6.44e5,5.97e5
Cpr92A (Cuticular protein 92A),DRSC16000,2.02e5,1.98e5,2.79e6,2.89e6
Cpr92A (Cuticular protein 92A),DRSC25340,8.17e5,8.92e5,9.61e5,1.15e6
SmF (Small ribonucleoprotein particle protein SmF),DRSC07397,2.51e5,2.21e5,1.17e6,1.26e6
SmF (Small ribonucleoprotein particle protein SmF),DRSC25054,6.08e5,2.70e5,4.55e5,4.18e5
CG17834,DRSC02637,8.22e5,9.99e5,2.01e6,1.76e6
CG17834,DRSC26694,4.01e5,4.50e5,4.19e5,4.39e5
CG5986,DRSC15931,57124,62093,5.44e5,5.24e5
CG5986,DRSC24247,6.42e5,5.92e5,5.22e5,7.30e5
Ugt36E1 (UDP-glycosyltransferase family 36 member E1),DRSC02599,1.48e6,7.18e5,2.05e6,1.14e6
CG13295,DRSC09969,88906,1.73e5,1.13e6,1.75e6
"Pka-C2 (Protein kinase, cAMP-dependent, catalytic subunit 2)",DRSC16790,98087,71564,1.24e6,1.27e6
"Pka-C2 (Protein kinase, cAMP-dependent, catalytic subunit 2)",DRSC23310,6.69e5,7.05e5,7.03e5,8.24e5
"Pka-C2 (Protein kinase, cAMP-dependent, catalytic subunit 2)",DRSC29076,4.74e5,4.45e5,1.54e6,1.73e6
CG15876,DRSC08484,1.21e5,1.27e5,1.97e6,2.23e6
CG15876,DRSC27697,1.89e5,2.23e5,3.95e5,6.14e5
Tim9a,DRSC19753,4.24e5,5.27e5,3.30e6,3.38e6
CG42323,DRSC19629,7.38e5,6.97e5,3.97e6,4.08e6
CG42323,DRSC21397,7.05e5,6.47e5,1.55e6,1.33e6
CG45067,DRSC08414,85645,1.32e5,1.38e6,1.48e6
CG45067,DRSC27186,2.25e5,1.72e5,6.20e5,5.49e5
CheB93a (Chemosensory protein B 93a),DRSC15044,1.97e5,1.99e5,3.49e6,3.44e6
toc (toucan),DRSC00169,1.36e5,1.53e5,1.65e5,1.55e5
toc (toucan),DRSC00171,1.03e5,98254,4.92e5,4.57e5
toc (toucan),DRSC00842,6.53e5,8.31e5,1.59e6,1.50e6
CG10183,DRSC14203,1.86e5,2.86e5,2.55e6,2.64e6
CG10183,DRSC25343,1.22e6,1.23e6,9.69e5,9.75e5
Pif1A + Pif1B,DRSC14142,68576,87472,1.53e6,1.20e6
Pif1A + Pif1B,DRSC14380,79195,75028,2.94e5,3.80e5
Pif1A + Pif1B,DRSC14381,1.48e5,1.53e5,2.45e6,1.95e6
